PMC10163288
This is one part of the list.

B1: il2ra_site2_3nfp_normal_mot_HHH_b1_05627_af2_000000038_0001_43_56_H_._HHH_b2_05144_0001_0000200005_0000001_1 (protein)
chain: SSSSKAEEYLRIALELLREALEEGDEEAARTIAEAALALAENLNDEEVEEEVEKVLRELESSSSS
B2: il2ra_site1_2b5i_normal_mot_HHH_b2_07442_af2_000000069_0001_1_16_H_._HHH_b1_08272_0001_0000700028_0000001_0_af2pred_0001_af2pred_1 (protein)
chain: SSSSDEEFERVLELFREASRLFQEGDPEEARKVLEEAREIAEEANDPVAREDLERFQKFINSSSS
B3: il2ra_site1_1z92_sap_12_mot_HHH_b2_04974_000000012_0001_1_17_H_._HHH_b1_06150_af2_0001_0000300041_0000001_0_0001_af2pred_dldesign_0_af2pred (protein)
chain: SSSSSSPYQRARDLILEINKARQAGDTEKFDELLAELEKLAKELESNTLLRFIEHARKELSSSSS
B4: il2ra_site2_3nfp_normal_mot_HHH_b1_05628_af2_000000064_0001_19_35_H_._HHH_b1_08457_0001_0000200016_0000001_0 (protein)
chain: SSSSDAEERVKELEKELREAEEEGDEELLEKLAFELFALASDLQDRRLASLAARLLFELRSSSSS
B5: il2ra_site1_1z92_sap_20_mot_HHH_b1_04647_af2_000000143_0001_21_38_H_._HHH_b1_02373_0001_0000300016_0000001_0_0001 (protein)
chain: SSSSDRSLEWAEELLRLALRLGSEKNIRFLTQFLKILAKAKNDPEAEELVEEAEKVLEELSSSSS
B6: il2ra_site1_2b5i_normal_mot_HHH_b2_04910_000000118_0001_1_19_H_._HHH_b1_06419_0001_0000500029_0000001_0 (protein)
chain: SSSSTEETREIIELFKEADRLDREGNEEEARKLLERALELAEEFGNKSLLRMVEFALRQLSSSSS
B7: il2ra_site1_2b5i_normal_mot_f5ff40796168375b462bec8614a1db4a_0001_1_000000138_0001_53_65_H_._HHH_b1_08036_0001_0000100001_0000001_0 (protein)
chain: SSSSDSFEQSAEDLLEEARRLIENGNPHEARSILHLARASARRAGNPELVEEIERLLEEASSSSS
B8: il2ra_site2_3nfp_sap_18_mot_HHH_b2_05281_000000198_0001_39_56_H_._25e4e8523bb898988f824d7176892a6f_0001_0001_0000300020_0000001_0_0001 (protein)
chain: SSSSSDERHEEMVELAIEAAKAAGDEEVLEELRELLERAREEGDYRLLLEAYALAARLYKNSSSS
B9: il2ra_site2_3nfp_normal_mot_HHH_b1_00660_af2_000000090_0001_40_57_H_._HHH_b1_02249_0001_0000400045_0000001_0_af2pred_0001_af2pred_swapped (protein)
chain: SSSSDEEEVRELLERAEELRKEGNPEEAEELLKRAALIAIEANDHELFALIVEVLERVLQSSSSS
B10: il2ra_site1_3nfp_sap_12_mot_HHH_b1_00630_af2_000000193_0001_42_55_H_._HHH_b2_07301_0001_0000900037_0000001_0_0001_af2pred_0001_af2pred_1 (protein)
chain: SSSSSREEVERLVEEAEEAAREGDAKLASELSRRIFELAKETGDPEIVKLLRELLEKAIRLSSSS
B11: il2ra_site2_3nfp_normal_mot_HHH_b1_04032_000000208_0001_43_56_H_._ems_3hM_3301_af2_0001_0000200004_0000001_0 (protein)
chain: SDEEQAELVLELIEAHALVHNDDEVRELVEELKELLEEAEKKNDEELVERIAELANELAHRVVNS
B12: il2ra_site2_2erj_sap_32_mot_HHH_b1_02841_000000003_0001_43_57_H_._HHH_b1_02948_0001_0000100003_0000001_0_0001 (protein)
chain: SSSSDESEEILEEAKELLEEAREKGDLHLLFRIASEAAERLARLGDHEALDRLNEFFMRLQSSSS
B13: il2ra_site1_2b5i_normal_mot_22370d59370c406a0c205a431f537cfa_0001_af2_000000141_0001_1_31_H_._HHH_b2_03163_af2_0001_0000300027_0000001_0 (protein)
chain: SSSDRELTHFAVRVVWELAVRLGLSFEQRRELNQLAAELVDEGFSEEEIEEILREEAEKLKSSSS
B14: il2ra_site2_2erj_sap_25_mot_64bd02d26d05ce9f1a62b616cea0b888_0001_af2_000000029_0001_36_49_H_._HHH_b2_07515_0001_0000800026_0000001_0_0001 (protein)
chain: SSSDVEERILRLLWEALRALVNGNPEEAKELVKEAKELAEELGNEELRRWIEAFEETIKSVSSSS
B15: il2ra_site1_2b5i_normal_mot_HHH_b2_01822_000000237_0001_40_54_H_._HHH_b2_01564_0001_0000800029_0000001_0_af2pred_dldesign_0_af2pred (protein)
chain: SSSSCPATRRVTELLEEANKLEDEEKREELLKEARRIAEENKCPQALRLVEWFEKEWKAESSSSS
B16: il2ra_site2_2erj_normal_mot_HHH_b1_01239_000000175_0001_43_57_H_._HHH_b2_02641_0001_0000400036_0000001_0_af2pred_0001_af2pred (protein)
chain: SSSSSSSETEEEVRRLLEEAEQVSDIQEAYELLEEASRLALELEDEEAFQLVDEVAKRLSSSSSS
B17: il2ra_site2_3nfp_normal_mot_HHH_b1_00239_000000199_0001_23_39_H_._HHH_b1_06021_0001_0000100008_0000001_0 (protein)
chain: SSSTEEEIEELLRQVEELLKEGDTYEAAELLARASELVARLGDEELARLVLRLYEILRRLYSSSS
B18: il2ra_site1_1z92_sap_15_mot_4eadacea29f80ea3a0abedbb5e3c3690_0001_af2_000000154_0001_35_49_H_._HEEHE_2194_0001_0000300049_0000001_0_0001 (protein)
chain: SSSSSDLEKQIEFLLRQIERALERNSEKLVRRLLEMVKRAAEEANDEELLEEVEELKERISSSSS
B19: il2ra_site2_2erj_normal_mot_HHH_b1_02757_000000121_0001_41_57_H_._HHH_b1_07526_0001_0000300010_0000001_0 (protein)
chain: SSSSDRKAFETLEELDRLLQEGDDEEFERLVEEFQRELEERGDEVTLESFREMVELAREVLSSSS
B20: il2ra_site1_3nfp_sap_8_mot_HHH_b2_00386_af2_000000253_0001_43_53_H_._HHH_b2_02858_0001_0000100001_0000001_0_0001_af2pred_dldesign_0_af2pred (protein)
chain: SSSSSSNIKELLEKANELAKAGDLEEAKKVLEEALELAKKLGLNKTVKFIERCLKLLESSSSSSS
B21: il2ra_site1_1z92_normal_mot_30aa582283ecb64a35315be28fff3e94_0001_000000110_0001_35_49_H_._HHH_b1_05084_0001_0000100006_0000001_0 (protein)
chain: SSSSTLERTAKRLVEDFIKLAGLSEEQQELLRKLAEELVEEGFSPQEIARILEEVAIKLEESSSS
B22: il2ra_site2_2erj_normal_mot_HHH_b1_01555_af2_000000123_0001_22_39_H_._HHH_b1_04602_af2_0001_0000100002_0000001_0 (protein)
chain: SSSSDEEEREELKQIVEEIVEEFGLSERDRRDLEESARIALELGTSVELIERFLRLVAEDLSSSS
B23: il2ra_site2_2erj_normal_mot_90f6a21de4ed711cb697bb9f61d9c40c_0001_af2_000000135_0001_36_50_H_._HHH_b2_03327_0002_0000600026_0000001_0_af2pred_0001_af2pred (protein)
chain: SSSDREEVAKEVVERLVEELGLDEEAQRQLELSAELAIEAGASPEQIEQYLKLVAEYLLKQLSSS
B24: il2ra_site2_3nfp_normal_mot_HHH_b2_07498_000000293_0001_1_14_H_._HHH_b2_00131_af2_0001_0000100001_0000001_0 (protein)
chain: SSSSDEEEKLERLEERIKELEEKNDRFEALRLIAELTELAAKLNDEEVAELVLELYRELLSSSSS

Biological target: il2ra, P01589
Test: yeast display titration

Apparent Kd, inactive:
B1 no binding seen
B2 no binding seen
B3 no binding seen
B4 no binding seen
B5 no binding seen
B6 no binding seen
B7 no binding seen
B8 no binding seen
B9 no binding seen
B10 no binding seen
B11 no binding seen
B12 no binding seen
B13 no binding seen
B14 > 690 nM
B15 no binding seen
B16 no binding seen
B17 no binding seen
B18 no binding seen
B19 no binding seen
B20 no binding seen
B21 no binding seen
B22 no binding seen
B23 no binding seen
B24 no binding seen

7 consecutive entries out of the list so far:
Apparent Kd, inactive:
B10 no binding seen
B11 no binding seen
B12 no binding seen
B13 no binding seen
B14 > 690 nM
B15 no binding seen
B16 no binding seen
